{"source": "patent US20240274226A1", "about": "“MOLECULAR EVALUATION METHODS” (UNIVERSITY COLLEGE DUBLIN, priority 2021, published 2024)", "format_in_all_cases": "cell-based, human", "key": {"TrkA cells": {"test_system": "TrkA cells", "experiment": "RPPA phosphoproteomics (raw fluorescent intensity) in TrkA cells stimulated with ligand and treated with inhibitors", "conditions": "MEK inhibitor 0.5 μM, 100 ng/ml NGF", "from_the_text": "(§1) Experiments used a custom made RPPA with 115 validated antibodies listed in Table S1A below to interrogate the activities of signaling pathways involved in TrkA/B signaling (Schramm et al., 2005), including MAPK (RAS-ERK, JNK, p38), PI3 kinase (AKT, mTORC1/2), JAK-STAT, PLCγ-PKC, TGFβ-SMAD, Wnt, cyclic-AMP, cell cycle (CDK1, Cyclins, Rb, p53, p21^WAF), apoptosis (BAX, BCL2, BCLx, Caspase 3), transcription factor (MYC, NFκB, JUN), and tyrosine kinase (SRC, EGFR, PDGFR, IGFR) pathways. In addition to the 115 antibodies, three controls are also included, Mouse 1, 2 and 3.\n(§2) For each antibody, RPPA phosphoproteomics data was collected, measured as raw fluorescent intensity values in TrkA and TrkB cells stimulated with a ligand and treated with different inhibitors. A sample of the data is reproduced in Table S1B below, showing the measured fluorescent intensity values for a small sample of antibodies and a small sample of treatment and stimulation conditions. The full data set, including replicated experiments, contains 118 rows (one per antibody) and 144 columns (each containing 118 measurements and relating to an experimental set of treatment and stimulation conditions, which include replicated experiments). […]"}, "SH-SY5Y-TrkB": {"test_system": "SH-SY5Y-TrkB", "experiment": "Differentiation of TrkB cells, live cell images at 72 hours", "conditions": "BDNF-stimulated, combination 1.25 μM Gefitinib + 0.1 μM Trametinib or 2.5 μM + 0.05 μM, alone 2.5 μM Gefitinib, 0.2 μM Trametinib", "procedure": "FIG. 45 is a live cell image of TrkB cells stimulated with BDNF taken at 72 hours. FIG. 46 is a live cell image of BDNF-stimulated TrkB cells treated with 0.2 μM Trametinib taken at 72 hours. FIG. 47 is a live cell image of BDNF-stimulated TrkB cells treated with 2.5 μM Gefitinib taken at 72 hours. […] FIG. 49 is an additional experiment, being a live cell image of BDNF-stimulated TrkB cells treated with a combination of 2.5 μM Gefitinib and 0.05 μM Trametinib taken at 72 hours."}, "TrkB cells": {"test_system": "TrkB cells", "experiment": "RPPA phosphoproteomics (raw fluorescent intensity) in TrkB cells stimulated with ligand and treated with inhibitors", "conditions": "MEK inhibitor 0.5 μM, 100 ng/ml BDNF", "from_the_text": "as §1, §2"}}, "note": "For at least one compound, name, drawing or mass did not settle the structure."}
{"smiles": "CC(=O)Nc1cccc(-n2c(=O)n(C3CC3)c(=O)c3c(Nc4ccc(I)cc4F)n(C)c(=O)c(C)c32)c1", "note": "[MEK inhibitor, Trametinib]", "values": [{"measurement": "phosphorylation of ERBB, AKT, and their downstream effectors", "setting": "TrkA cells", "result": "these effects are much less"}, {"measurement": "differentiation of TrkB cells (live cell images)", "setting": "SH-SY5Y-TrkB", "result": "not with either inhibitor applied separately"}, {"measurement": "phosphorylation of ERBB, AKT, and their downstream effectors", "setting": "TrkB cells", "result": "substantially downregulates"}]}
